Data as given in PubChem BioAssay AID743121 (NCATS, 2013).
The deposit covers about 26,000 reagents; shown is a random part of them. Of all reagents, 167 (0.63%) got an active call. 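Calls are per gene from RSA p-values that are not deposited; an individual active-marked siRNA can sensitise only weakly.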 Further read-outs or replicates are left out here.

Aim: 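Genes whose silencing strengthens cell killing by camptothecin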 (primary screen)
Cells: MDA-MB-231 cells, a human breast cancer line
Reagents: single siRNA against human genes, 20 nM siRNA (0.8 pmol per well)
Duration: 120 h (drug added 48 h after transfection, read 72 h later)
Conditions: camptothecin 20 nM (about EC30) for 72 h; vehicle 0.1% DMSO in parallel plates
Detection: 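CellTiter-Glo ATP signal, scaled to control siRNA as percent viability; sensitisation given as log2 of untreated divided by camptothecin-treated viability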
Scale: log2 vehicle/camptothecin viability: higher = stronger sensitisation to camptothecin; viability with camptothecin: higher = more viable cells
Units: viability with camptothecin in % of control
Active means: 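Active genes have an RSA gene-level p-value below 0.001, computed from the ratios of their separate siRNAs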

For PLIN1 [SID164381183] the deposit lists log2 vehicle/camptothecin viability -0.051; viability with camptothecin 75; inactive.
PLIN1 [SID164381184] gave log2 vehicle/camptothecin viability -0.118; viability with camptothecin 59.3; inactive.
After knock-down of PLIN1 [SID164381185], the record shows log2 vehicle/camptothecin viability -0.172; viability with camptothecin 63.9; inactive.
With knock-down of PLIN1 [SID164381186], the record shows log2 vehicle/camptothecin viability -0.374; viability with camptothecin 10.6; inactive.
Against INSR [SID164371732], the values are log2 vehicle/camptothecin viability -0.11; viability with camptothecin 104; inactive.
After knock-down of INSR [SID164371735], the screen gave log2 vehicle/camptothecin viability 0.185; viability with camptothecin 81.3; inactive.
After knock-down of INSR [SID164371736], the screen gave log2 vehicle/camptothecin viability -0.251; viability with camptothecin 46.2; inactive.
Silencing of INSR [SID164371738] came out at: log2 vehicle/camptothecin viability -0.293; viability with camptothecin 80.8; inactive.
Against MAGI3 [SID164611258], the values are log2 vehicle/camptothecin viability 0.341; viability with camptothecin 71.2; inactive.
Knock-down of MAGI3 [SID164611259] gave: log2 vehicle/camptothecin viability -0.554; viability with camptothecin 109; inactive.
MAGI3 [SID164611260] showed log2 vehicle/camptothecin viability -0.416; viability with camptothecin 99.9; inactive.
For MAGI3 [SID164611264], the values are log2 vehicle/camptothecin viability 0.893; viability with camptothecin 48.4; inactive.

A few values from the entries so far:
Value for PLIN1 [SID164381184] in “Outcome”: inactive
INSR [SID164371735], viability with camptothecin → 81.3

Further entries:
After knock-down of LIPM [SID164658515], the record shows log2 vehicle/camptothecin viability 0.634; viability with camptothecin 66.5; inactive.
With knock-down of LIPM [SID164658516], the screen gave log2 vehicle/camptothecin viability -0.277; viability with camptothecin 74.9; inactive.
LIPM [SID164658518] scored log2 vehicle/camptothecin viability -0.327; viability with camptothecin 101; inactive.
With knock-down of LIPM [SID164658521] the results were log2 vehicle/camptothecin viability -0.0888; viability with camptothecin 44; inactive.
PTGES3 [SID164413038] showed log2 vehicle/camptothecin viability -0.0392; viability with camptothecin 82.7; inactive.
Against PTGES3 [SID164413039], the entry reads log2 vehicle/camptothecin viability -0.244; viability with camptothecin 107; inactive.
After knock-down of HJURP [SID164484644], the screen gave log2 vehicle/camptothecin viability 0.336; viability with camptothecin 64.4; inactive.
Knock-down of HJURP [SID164484647] came out at: log2 vehicle/camptothecin viability -0.215; viability with camptothecin 116; inactive.
After knock-down of HJURP [SID164484648] the results were log2 vehicle/camptothecin viability -0.12; viability with camptothecin 65.8; inactive.
HJURP [SID164484650] gave log2 vehicle/camptothecin viability -0.518; viability with camptothecin 78.9; inactive.
TSC2 [SID164392756] showed log2 vehicle/camptothecin viability -0.475; viability with camptothecin 87.7; inactive.
Depletion of TSC2 [SID164392757] gave: log2 vehicle/camptothecin viability 0.00881; viability with camptothecin 76.6; inactive.
TSC2 [SID164392761] scored log2 vehicle/camptothecin viability -0.18; viability with camptothecin 105; inactive.
Against TSC2 [SID164392762], the values are log2 vehicle/camptothecin viability -0.216; viability with camptothecin 114; inactive.
RIOK3 [SID164399789] scored log2 vehicle/camptothecin viability -0.535; viability with camptothecin 86.1; inactive.
For RIOK3 [SID164399791] the deposit lists log2 vehicle/camptothecin viability -0.299; viability with camptothecin 118; inactive.
Silencing of RIOK3 [SID164399792] came out at: log2 vehicle/camptothecin viability -0.324; viability with camptothecin 52.1; inactive.
For RIOK3 [SID164399794] the deposit lists log2 vehicle/camptothecin viability -0.193; viability with camptothecin 108; inactive.
Silencing of MASTL [SID164547418] gave: log2 vehicle/camptothecin viability -0.654; viability with camptothecin 76.9; inactive.
With knock-down of MASTL [SID164547419] the results were log2 vehicle/camptothecin viability -0.0816; viability with camptothecin 88.7; inactive.
MASTL [SID164547420] showed log2 vehicle/camptothecin viability -0.236; viability with camptothecin 101; inactive.
MASTL [SID164547421] scored log2 vehicle/camptothecin viability -0.465; viability with camptothecin 129; inactive.
After knock-down of PPP1CB [SID164382053], the record shows log2 vehicle/camptothecin viability -0.424; viability with camptothecin 78; inactive.
After knock-down of PPP1CB [SID164382054] the results were log2 vehicle/camptothecin viability 0.396; viability with camptothecin 34.6; inactive.
With knock-down of PPP1CB [SID164382056], the record shows log2 vehicle/camptothecin viability -0.176; viability with camptothecin 70.3; inactive.
PPP1CB [SID164382058] showed log2 vehicle/camptothecin viability 0.126; viability with camptothecin 31; inactive.
